Measured values from patent publication US11642316B2, “Water-soluble curcumin mixture with high bioavailability and preparation method and application thereof” (HENAN ZHONGDA HENGYUAN BIOTECHNOLOGY STOCK CO., LTD., priority 2021, dated 2023).

Columns and labels:
[1] = background statement; cited from earlier work
[2] = Solubility in water (dispersed in water); assay type: physicochemical

water solubility [2]: insoluble
Structure (SMILES): COc1cc(/C=C/C(=O)CC(=O)/C=C/c2ccc(O)c(OC)c2)ccc1O [curcumin]
solubility in water [1]: basically insoluble
